Test results reported in PMC10454854, “Structural and Biochemical Analysis of the Recombination Mediator Protein RecR from Campylobacter jejuni” (International Journal of Molecular Sciences, 2023).
The exact form of at least one protein or probe is not confirmed. For some assays here: Weaker means in comparison with the reference protein, sequence or condition of that experiment.

Assays:
[1] = tested on: cjRecO (Campylobacter jejuni); assay: fluorescence polarization; conditions: lower affinity than cjRecR; Fluorescence polarization: 0.8 nM fluorescein 40-mer ssDNA, protein up to 100 uM, one-site fit; pH and temperature not stated; recombinant protein; single-stranded DNA
cjRecR + cjRecO = assay: fluorescence polarization; conditions: cjRecR and cjRecO mixture, only additive effect, no stable RecOR complex detected; Fluorescence polarization: 0.8 nM fluorescein 40-mer ssDNA, protein up to 100 uM, one-site fit; pH and temperature not stated; recombinant protein; protein details: His6 tag removed with thrombin; single-stranded DNA

“TTATAGGCATATAGGAGTAATTTTCTTGGGCTATGCAGTA [40-mer ssDNA]”: binds more weakly [1]; binds (cjRecR + cjRecO).
